No constants are given. Whether binding was seen depends on the method and setting. Binding seen in cells or lysates may run through a third protein. Some results given as binding are weak or reduced against the parent protein; the word gives no strength. Where a sequence is shown, tags or fusion partners need not be part of it.
Tests used:
[1] = molecular target: FLAG-Atg12 (mouse) (mouse) (UniProt Q9CQY1); experiment: co-IP
[2] = molecular target: FLAG-Atg5 (mouse) (mouse) (UniProt Q99J83); experiment: co-IP

Amino acid sequences for entries named in this document (tags omitted).
UniProt Q9CQY1: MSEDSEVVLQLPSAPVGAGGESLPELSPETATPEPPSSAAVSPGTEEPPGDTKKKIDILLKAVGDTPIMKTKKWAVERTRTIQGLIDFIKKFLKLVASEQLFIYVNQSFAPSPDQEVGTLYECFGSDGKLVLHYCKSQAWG
UniProt Q99J83: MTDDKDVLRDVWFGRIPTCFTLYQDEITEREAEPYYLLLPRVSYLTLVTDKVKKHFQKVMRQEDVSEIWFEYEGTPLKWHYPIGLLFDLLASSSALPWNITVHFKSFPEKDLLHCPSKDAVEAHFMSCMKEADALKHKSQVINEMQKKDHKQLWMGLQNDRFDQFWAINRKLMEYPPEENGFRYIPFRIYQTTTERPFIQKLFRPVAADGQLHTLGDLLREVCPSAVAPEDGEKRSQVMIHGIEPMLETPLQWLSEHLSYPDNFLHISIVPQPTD

B1: Myc-Msr1 (mouse macrophage scavenger receptor 1) (receptor, UniProt P30204 1-458)
chain: MTKEMTENQRLCPHEQEDADCSSESVKFDARSMTASLPHSTKNGPSLQEKLKSFKAALIALYLLVFAVLIPVVGIVTAQLLNWEMKNCLVCSLNTSDTSQGPMEKENTSKVEMRFTIIMEHMKDMEERIESISNSKADLIDTERFQNFSMATDQRLNDILLQLNSLISSVQEHGNSLDAISKSLQSLNMTLLDVQLHTETLNVRVRESTAKQQEDISKLEERVYKVSAEVQSVKEEQAHVEQEVKQEVRVLNNITNDLRLKDWEHSQTLKNITFIQGPPGPQGEKGDRGLTGQTGPPGAPGIRGIPGVKGDRGQIGFPGGRGNPGAPGKPGRSGSPGPKGQKGEKGSVGGSTPLKTVRLVGGSGAHEGRVEIFHQGQWGTICDDRWDIRAGQVVCRSLGYQEVLAVHKRAHFGQGTGPIWLNEVMCFGRESSIENCKINQWGVLSCSHSEDAGVTCTS
- binding [1]: binds
- binding [2]: binds

Reference: PMC7545163
